According to PubChem BioAssay AID504847 (National Center for Advancing Translational Sciences (NCATS), 2011):
The campaign covered roughly 400,000 compounds. About 3,700 (0.93%) were called active. The shares of active, inactive and inconclusive entries below differ from those in the screen. Calls come from the whole dose curve; as a rule, active = well fitted inhibition curve with a large enough effect; inconclusive = small, poorly fitted or top-dose-only effect, or another doubt; inactive = no such curve, though single readings can be large or run the other way. Where the call is inconclusive, the potency comes from a doubtful curve fit.

Protein sequences, listed by entry. Tags and fused reporters are not part of them. Lines headed by an entry give the natural chain unless they say otherwise; changes in a name come on top.
UniProt P11473: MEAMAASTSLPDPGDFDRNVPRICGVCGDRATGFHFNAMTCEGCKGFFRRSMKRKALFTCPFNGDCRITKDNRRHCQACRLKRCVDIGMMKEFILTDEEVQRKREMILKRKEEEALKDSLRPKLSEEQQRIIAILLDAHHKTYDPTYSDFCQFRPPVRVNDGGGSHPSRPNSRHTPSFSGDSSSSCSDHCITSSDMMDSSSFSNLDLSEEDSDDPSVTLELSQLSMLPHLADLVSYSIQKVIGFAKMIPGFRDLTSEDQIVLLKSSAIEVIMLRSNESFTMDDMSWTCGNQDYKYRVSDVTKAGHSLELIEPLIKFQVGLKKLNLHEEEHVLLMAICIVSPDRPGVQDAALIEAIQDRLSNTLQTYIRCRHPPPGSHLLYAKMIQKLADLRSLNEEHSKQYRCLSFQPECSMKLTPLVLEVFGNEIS

biological target: Vitamin D3 receptor (Homo sapiens) (UniProt P11473); test: Inhibitors of the vitamin D receptor (VDR): qHTS; conditions: VDR-SRC2-3 peptide fluorescence polarization, 2 h; max response, negative = inhibition: active compounds read low
Summary of the method: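 The screen uses fluorescence polarization to detect compounds that interfere with recruitment of the SRC2-3 coactivator peptide to VDR; plates are read after 2 h at room temperature.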
% is set by controls: 0 for no effect and ±100 for the full control effect; potency is the fitted concentration of half-maximal effect.

Q: `CC(C)c1nn2c(=O)cc(COC(=O)COc3ccccc3F)nc2s1` was tested. Which max response, negative = inhibition did it give?
A: The max response, negative = inhibition was inactive: 17.1%.

Q: How did the Potency turn out when `Cc1ccc(Cn2c(S(=O)(=O)O)nc3ccccc32)cc1` was run?
A: Its Potency is inconclusive: 89.1 µM [inhibitor, partial curve, poor fit].

Q: Which max response, negative = inhibition does the source give for `CCc1ccccc1NC(=O)CSc1nc2ccccc2nc1Cc1cccc(OC)c1` here?
A: Its max response, negative = inhibition is inactive: 3.36%.

Q: How did the Potency turn out when `O=[N+]([O-])c1ccc(C2NS(=O)(=O)N=C3CCCCCN32)cc1` (centres undefined) was run?
A: Its Potency is inconclusive: 70.8 µM [inhibitor, partial curve, poor fit].

Q: How did the max response, negative = inhibition turn out when `C=CCn1c(C)cc(C(=O)COC(=O)c2cncc(Br)c2)c1C` was run?
A: The max response, negative = inhibition was inactive: 3.73%.

Q: How did the max response, negative = inhibition turn out when `COc1ccc(CNS(=O)(=O)CCNC(=O)c2ccc(OC)cc2)cc1` was run?
A: Its max response, negative = inhibition is inactive: 9.49%.

Q: `COc1ccc(S(=O)(=O)N(C)CC(=O)Nc2ccc(C)cc2)cc1OC` was tested. Which max response, negative = inhibition did it give?
A: Its max response, negative = inhibition is inactive: -19.9%.

Q: Which Potency does the source give for `COc1ccccc1CNc1ccnc(-c2ccoc2)n1` here?
A: The Potency was inconclusive: 39.8 µM [inhibitor, full curve].

Q: Which Potency does the source give for `CCCC(c1nnnn1CCOC)N1CCN(c2nc3ccccc3s2)CC1` (centres undefined) here?
A: Its Potency is inconclusive: 39.8 µM [inhibitor, full curve, poor fit].

Q: With `C/C=C/C=C/C(=O)[C@@H]1[C@@H]([C@]2(C)OC(=O)C(C)=C2O)[C@H]2/C(=C(O)/C=C/C=C/C)C(=O)[C@]1(C)C(=O)C2(C)O` (some centres undefined) as the compound, how does the Potency read?
A: The Potency was inconclusive: 89.1 µM [inhibitor, single point].

Q: `NC(=S)c1cc2cc(Cl)ccc2oc1=O` was tested. Which Potency did it give?
A: Its Potency is inconclusive: 89.1 µM [inhibitor, single point].

Q: For `C=CCN1C(=O)/C(=c2\sc3nc(=O)c(Cc4ccccc4)nn3c2=O)c2ccccc21`, which Potency is on record?
A: Its Potency is inconclusive: 50.1 µM [inhibitor, partial curve, poor fit].

Q: How did the max response, negative = inhibition turn out when `O=C(Nc1ccc2nc(SCC(=O)N3CCc4ccccc43)sc2c1)c1ccc(Cl)cc1` was run?
A: Its max response, negative = inhibition is inactive: 11%.

Q: For `CC(=O)Nc1ccc(S(=O)(=O)Nc2ccc(C(=O)NCC(=O)O)cc2)cc1`, which max response, negative = inhibition is on record?
A: The max response, negative = inhibition was inactive: -17.5%.

Q: With `CCOc1ccccc1NC(=O)C(=O)NCC(c1cccnc1)N1CCN(c2ccccc2)CC1` (centres undefined) as the compound, how does the max response, negative = inhibition read?
A: Its max response, negative = inhibition is inactive: -2.53%.

Q: `CCCCn1c(N)c(N(CC)C(=O)C(c2ccccc2)c2ccccc2)c(=O)[nH]c1=O` was tested. Which Potency did it give?
A: The Potency was inconclusive: 56.2 µM [inhibitor, partial curve, poor fit].

Q: For `Cc1ccc(C)c(C(=O)CSc2n[nH]c(C)n2)c1`, which Potency is on record?
A: The Potency was inconclusive: 56.2 µM [inhibitor, partial curve, poor fit].

Q: Which Potency does the source give for `CC(C)NC(=O)Cn1c(SCC(=O)N2CCCCCC2)nc2ccccc21` here?
A: The Potency was inconclusive: 35.5 µM [inhibitor, partial curve, poor fit].

Q: How did the max response, negative = inhibition turn out when `CCOc1cc(/C=C2/SC(=Nc3ccccc3)N(Cc3cccnc3)C2=O)ccc1OCC#N` was run?
A: Its max response, negative = inhibition is inactive: 13.3%.

Q: For `CCCNC(=O)OCCC12CC3CC(CC(C3)C1)C2`, which Potency is on record?
A: Its Potency is inconclusive: 89.1 µM [inhibitor, partial curve, poor fit].

Q: For `COc1ccc(-n2ccnc(SCC(=O)NC3CCCC3)c2=O)cc1OC`, which Potency is on record?
A: The Potency was inconclusive: 70.8 µM [inhibitor, single point].

Q: How did the Potency turn out when `c1coc(-c2nnc(-c3ccco3)nn2)c1` was run?
A: Its Potency is active: 89.1 µM.

Q: With `CC(=O)C1=C(O)C(=O)N(CCCCCC(=O)O)C1c1ccc(N(C)C)cc1` (centres undefined) as the compound, how does the max response, negative = inhibition read?
A: Its max response, negative = inhibition is inactive: 22.9%.

Q: With `CS(=O)(=O)Nc1cccc(-c2cc(NCc3ccccc3)ncn2)c1` as the compound, how does the max response, negative = inhibition read?
A: The max response, negative = inhibition was inactive: -2.13%.

Q: `COc1ccc(CC(=O)OC(C)C(=O)c2ccc(C)cc2)cc1` (centres undefined) was tested. Which max response, negative = inhibition did it give?
A: Its max response, negative = inhibition is inactive: -10.2%.

Q: How did the Potency turn out when `COc1ccnc(CSC(N)=Nc2ccccc2OC)c1` was run?
A: Its Potency is inconclusive: 17.8 µM [inhibitor, full curve].

Q: How did the max response, negative = inhibition turn out when `COc1ccc(S(=O)(=O)N2CCCC(C(F)(F)F)C2)cc1` (centres undefined) was run?
A: The max response, negative = inhibition was inactive: -12.8%.

Q: `CCOc1ccc(/C=C/c2nc(C#N)c(N3CCCCCC3)o2)cc1` was tested. Which max response, negative = inhibition did it give?
A: Its max response, negative = inhibition is inactive: -8.12%.

Q: `N#Cc1c(/N=C/C=C/c2ccccc2)sc2c1CCCC2` was tested. Which Potency did it give?
A: The Potency was inconclusive: 100 µM [inhibitor, single point].

Q: With `CCOc1ccc(NC(=S)NS(=O)(=O)c2cc(Br)ccc2OCC)cc1` as the compound, how does the Potency read?
A: The Potency was inconclusive: 89.1 µM [inhibitor, single point].

Q: Which Potency does the source give for `COc1cccc(N=Cc2nc(-c3ccccc3)oc2OC(C)=O)c1` here?
A: Its Potency is inconclusive: 22.4 µM [inhibitor, single point].

Q: For `COc1ccc(-c2nnc(OCc3nc4ccccc4n3C)c3ccccc23)cc1`, which Potency is on record?
A: The Potency was inconclusive: 79.4 µM [inhibitor, partial curve, poor fit].

Q: How did the Potency turn out when `Cn1nnnc1SCCNC(=O)C1CCC(=O)N(CCc2cccc(F)c2)C1` (centres undefined) was run?
A: Its Potency is inconclusive: 100 µM [inhibitor, single point].

Q: Which max response, negative = inhibition does the source give for `O=C(/C=C/Nc1ccccc1F)c1cccs1` here?
A: Its max response, negative = inhibition is inactive: -2.41%.

Q: For `Cc1ccc(CCNC(=O)C2CCCN(S(=O)(=O)c3ccc4c(c3)oc(=O)n4C)C2)cc1` (centres undefined), which max response, negative = inhibition is on record?
A: The max response, negative = inhibition was inactive: -18%.

Q: `O=C(Nc1ccc(F)cc1)c1ccc(CSc2ccc(Cl)cc2)o1` was tested. Which Potency did it give?
A: Its Potency is inconclusive: 79.4 µM [inhibitor, single point].

Q: For `CCOc1ccccc1Nc1nc(N)nc(CN(C)C2CCCCC2)n1`, which Potency is on record?
A: The Potency was inconclusive: 5.62 µM [inhibitor, partial curve, poor fit].

Q: How did the max response, negative = inhibition turn out when `Oc1c(C(c2ccc(Cl)cc2Cl)N2CCCC2)sc2nc(-c3ccco3)nn12` (centres undefined) was run?
A: Its max response, negative = inhibition is inactive: -1.85%.

Q: How did the max response, negative = inhibition turn out when `COc1cccc(-c2c(-c3cc(OC)cc(OC)c3)n(C)c3ccc(Br)cc23)c1` was run?
A: The max response, negative = inhibition was inactive: -19.9%.

Q: With `CCCCC(CC)C(=O)N1CCN(C(=O)c2ccco2)CC1` (centres undefined) as the compound, how does the Potency read?
A: Its Potency is inconclusive: 100 µM [inhibitor, partial curve, poor fit].

Q: With `COc1cc2c(cc1OC)C(c1ccc(-c3ccccc3Cl)o1)=NCC2` as the compound, how does the max response, negative = inhibition read?
A: Its max response, negative = inhibition is inactive: -7.43%.

Q: How did the Potency turn out when `COC(=O)[C@H](CC(C)C)NC(=O)c1ccc(NC[C@@H](N)CS)cc1-c1cccc2ccccc12` was run?
A: The Potency was inconclusive: 8.91 µM [inhibitor, full curve, poor fit].

Q: For `COc1ccc(C2C(C#N)=C(N)Oc3c2c(-c2ccccc2)nn3-c2ccccc2)c(OC)c1OC` (centres undefined), which Potency is on record?
A: The Potency was inconclusive: 79.4 µM [inhibitor, single point].

Q: Which Potency does the source give for `Cc1ccc(NC(=O)CN(C)C(=O)Cn2nnc(-c3ccccc3)n2)cc1` here?
A: The Potency was inconclusive: 79.4 µM [inhibitor, partial curve, poor fit].
